Measured values taken from patent US5189025A, “Methods for the treatment of malignant disease in patients using citrulline containing amino acid solutions” (priority 1990, dated 1993).

Columns and labels:
[1] = test system: polyamine levels (erythrocyte and tumor); test: RBC and tumor polyamine levels in tumor-bearing rats infused with amino acid solutions (Example II, Table IV); assay type: in vivo, male Fisher 344 rats
[2] = test system: methylcholanthrene-induced fibrosarcoma; settings: 450 mg ornithine per 100 ml amino acid formulation

NCCC[C@H](N)C(=O)O [ornithine]
increase of putrescine levels within the tumors ([1]; Table IV summary): increased approximately three fold
levels of all three polyamines in RBC's ([1]; Table IV summary): significantly increased
blood polyamine levels ([1]; infusion alone, not in combination with essential amino acids, experimental tumor system): has not produced elevated blood polyamine levels
toxicity of continuous infusion [2]: posed no toxicity problems
